Data source: PubChem BioAssay AID1224830 (NIAID, 2016)
Shown is an unselected part of about 18,000 reagents tested. Over the whole deposit, about 2,900 (16%) are marked active. 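Calls are made per well; low scores hint the gene aids the LPS response, high scores that it dampens it.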 Repeated entries: four replicate wells of each siRNA pool. Reagent sequences are not shown.

Aim: 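Regulators of TLR4 signalling towards TNF-alpha in macrophage-like cells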 (primary screen)
System: human THP-1 monocytic leukaemia cells, TNF dual-luciferase reporter clone, PMA-differentiated to macrophage-like cells
Reagents: siRNA pool against human genes, 50 nM
Timing: LPS for 4 h, given about 3 days after siRNA transfection
Challenge: bacterial LPS (TLR4 ligand), 10 ng/ml
Measured: 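Ratio of firefly to renilla light, scaled to the plate median and expressed as a robust z-score per replicate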
Direction: TNF reporter robust z-score: higher = stronger TNF reporter response to LPS
Rule for the call: 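a well is active when its z-score exceeds 2.8 or falls below -1.5; control wells carry no call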

Depletion of WASF2 [SID315453871] came out at: TNF reporter robust z-score 1.5; inactive.
Against WASF2 [SID315453871], the values are TNF reporter robust z-score 1.49; inactive.
WASF2 [SID315453871] showed TNF reporter robust z-score 3.39; active.
Against WASF2 [SID315453871] the deposit lists TNF reporter robust z-score 2.59; inactive.
CYP4F22 [SID315461713] scored TNF reporter robust z-score -0.21; inactive.
CYP4F22 [SID315461713] showed TNF reporter robust z-score -0.39; inactive.
CYP4F22 [SID315461713] showed TNF reporter robust z-score 0.87; inactive.
After knock-down of CYP4F22 [SID315461713] the results were TNF reporter robust z-score 0.61; inactive.
Depletion of KCNE2 [SID315453735] resulted in: TNF reporter robust z-score -0.86; inactive.
KCNE2 [SID315453735] showed TNF reporter robust z-score -1.03; inactive.
With knock-down of KCNE2 [SID315453735], the screen gave TNF reporter robust z-score -0.46; inactive.
After knock-down of KCNE2 [SID315453735], the screen gave TNF reporter robust z-score 1.72; inactive.
Against BCAR1 [SID315453387], the values are TNF reporter robust z-score 1.55; inactive.
Silencing of BCAR1 [SID315453387] resulted in: TNF reporter robust z-score 0.37; inactive.
BCAR1 [SID315453387] scored TNF reporter robust z-score -0.76; inactive.
For BCAR1 [SID315453387] the deposit lists TNF reporter robust z-score 1.75; inactive.
For AQP6 [SID315447374], the values are TNF reporter robust z-score 0.58; inactive.
Silencing of AQP6 [SID315447374] resulted in: TNF reporter robust z-score -0.63; inactive.
AQP6 [SID315447374] gave TNF reporter robust z-score 0.43; inactive.
With knock-down of AQP6 [SID315447374], the record shows TNF reporter robust z-score 2.24; inactive.
For KRTAP3-2 [SID315460125] the deposit lists TNF reporter robust z-score -0.07; inactive.
Depletion of KRTAP3-2 [SID315460125] came out at: TNF reporter robust z-score -0.44; inactive.
KRTAP3-2 [SID315460125] scored TNF reporter robust z-score -0.46; inactive.
For KRTAP3-2 [SID315460125] the deposit lists TNF reporter robust z-score -0.48; inactive.
With knock-down of RBCK1 [SID315454238], the record shows TNF reporter robust z-score 0.16; inactive.
RBCK1 [SID315454238] scored TNF reporter robust z-score -0.4; inactive.
Depletion of RBCK1 [SID315454238] came out at: TNF reporter robust z-score 0.94; inactive.
Against RBCK1 [SID315454238], the values are TNF reporter robust z-score 1.97; inactive.
Knock-down of DEFB118 [SID315461424] came out at: TNF reporter robust z-score -0.4; inactive.
DEFB118 [SID315461424] scored TNF reporter robust z-score -1.23; inactive.
After knock-down of DEFB118 [SID315461424], the record shows TNF reporter robust z-score -0.59; inactive.
DEFB118 [SID315461424] scored TNF reporter robust z-score -0.12; inactive.

Entries above marked active (1):
WASF2 [SID315453871] | TNF reporter robust z-score = 3.39; Call = active
